Experimental data as given in PubChem BioAssay AID2551 (National Center for Advancing Translational Sciences (NCATS), 2010).
Out of some 310,000 compounds screened, about 17,000 (5.5%) were called active. The inconclusive results got no clear call from the source; some entries with a clear call stand among them for comparison. Calls come from the whole dose curve; as a rule, active = well fitted inhibition curve with a large enough effect; inconclusive = small, poorly fitted or top-dose-only effect, or effect the other way; inactive = no such curve, though single readings can be large or run the other way. Potencies of inconclusive entries are doubtful fits and often do not repeat.
Note: nearly all actives have a fitted effect of over 60% in size.
Potency is the fitted concentration of half-maximal effect.

The chains behind the UniProt entries cited, without tags or fusion partners. Where a name states a change or a piece, a line headed by the entry shows the natural chain unless it says otherwise.
UniProt P51450: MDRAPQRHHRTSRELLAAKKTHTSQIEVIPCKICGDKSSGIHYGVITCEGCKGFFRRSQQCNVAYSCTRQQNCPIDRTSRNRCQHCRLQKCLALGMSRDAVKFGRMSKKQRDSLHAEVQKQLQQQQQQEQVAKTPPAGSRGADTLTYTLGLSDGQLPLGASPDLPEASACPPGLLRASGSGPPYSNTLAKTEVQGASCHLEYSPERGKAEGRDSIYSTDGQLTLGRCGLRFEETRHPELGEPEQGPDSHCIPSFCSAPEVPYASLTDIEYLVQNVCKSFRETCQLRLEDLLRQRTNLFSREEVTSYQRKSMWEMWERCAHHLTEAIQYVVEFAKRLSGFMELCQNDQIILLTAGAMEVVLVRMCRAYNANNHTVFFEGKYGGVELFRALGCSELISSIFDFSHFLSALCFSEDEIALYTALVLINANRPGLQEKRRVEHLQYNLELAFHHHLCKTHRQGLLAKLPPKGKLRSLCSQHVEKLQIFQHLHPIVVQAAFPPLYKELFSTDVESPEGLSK

Each molecule was assayed against Nuclear receptor ROR-gamma (Mus musculus) (UniProt P51450) (assay: qHTS for inhibitors of ROR gamma transcriptional activity). Details: Drosophila S2 Gal4-RORgamma UAS-luciferase reporter, 20 h; series mostly up to 53.6 µM.
Procedure, shortened: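 Luciferase reporter read in Schneider cells carrying Gal4-RORγ (mouse) and UAS-Photinus luciferase; cells given compound 1 h before 700 uM copper sulfate induction, then incubated 20 h at ambient temperature.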
For `FC(F)Oc1ccc(/C=N/N2CCCCC2)c(OC(F)F)c1`, the Potency was inconclusive: 17.8 µM [activator, single point].
With `Cc1ccc[n+](C(C)C(=O)c2ccc(-c3ccccc3)cc2)c1` (centres undefined) the Potency was inconclusive: 22.4 µM [activator, single point].
With `CCOc1ccc(S(=O)(=O)N2CCC(C(=O)N3CCN(Cc4ccccc4)CC3)CC2)cc1` the Potency was inconclusive: 14.1 µM [activator, single point].
With `CC(=C\c1ccccc1)/C=C1/SC(=S)N(CCCC(=O)O)C1=O` the Potency was inconclusive: 0.398 µM [inhibitor, full curve].
`NC(=S)NNc1cc(Cl)cc(Cl)c1` was tested, and the Potency was active: 2.24 µM.
In the case of `CCOC(=O)c1ccc(N/C=C2/CCCC(C)C2=O)cc1` (centres undefined), the Potency is reported as “inactive”.
`COc1cccc(C2CC(c3cccs3)=NN2C(=O)CSc2nc3c(cnn3-c3ccc(F)cc3)c(=O)[nH]2)c1OC` (centres undefined) was tested, and the Potency was inconclusive: 20 µM [activator, single point].
For `C(=C\c1nc2ccccc2[nH]1)/c1ccccc1`, the Potency was active: 7.08 µM.
For `CCc1nnc(NS(=O)(=O)c2ccc(N=Cc3c(C)[nH]n(-c4cccc(Cl)c4)c3=O)cc2)s1`, the Potency was inconclusive: 28.2 µM [activator, single point].
For `O=C(NC1CCCCC1)NC1(C(=O)N2CCN3CCCC3C2)CCCCC1` (centres undefined), the Potency was “inactive”.
In the case of `Nc1ccccc1C#CC(=O)c1ccccc1`, the Potency is reported as active: 7.08 µM.
With `COc1ccc(C(=O)CSc2nnc(-c3ccco3)n2C)cc1` the Potency was “inactive”.
With `O=C(CSc1nnnn1C1CC2CCC1C2)Nc1ccnc2ccccc12` (centres undefined) the Potency was inconclusive: 35.5 µM [inhibitor, single point].
For `CCc1nc(C)c(C(=O)N2CCCC(C(=O)Nc3cccc(-c4cccc(C)c4)c3)C2)o1` (centres undefined), the Potency was inconclusive: 11.2 µM [activator, partial curve].
For `O=C(Nc1nccs1)c1ccc(COc2ccccc2Cl)o1`, the Potency was inconclusive: 11.2 µM [inhibitor, single point].
In the case of `O=C(CC(Nc1ccc(F)cc1)C(=O)O)c1ccccc1` (centres undefined), the Potency is reported as inconclusive: 22.4 µM [inhibitor, single point].
For `Cc1csc(NC(=O)c2ccc(C(=O)Nc3nc(C)cs3)cc2)n1`, the Potency was “inactive”.
For `COc1cc(Cn2c(=O)c3c(OC)c(C)cnc3n(C)c2=O)cc(OC)c1`, the Potency was “inactive”.
`O=C(Nc1ccccc1)c1cn2ccccc2n1` was tested, and the Potency was inconclusive: 1.78 µM [inhibitor, full curve].
With `CN1C(C(=O)NCC2CC2)CC2Cn3c(nc4cc(Cl)c(Cl)cc43)C21` (centres undefined) the Potency was “inactive”.
`C=CCSc1n[nH]c(-c2ccccc2)n1` was tested, and the Potency was inconclusive: 35.5 µM [inhibitor, single point].
`O=C(c1cc2c(s1)-c1ccccc1OC2)N1CCc2ccccc2C1` was tested, and the Potency was inconclusive: 15.8 µM [activator, single point].
In the case of `OCCNc1ncnc2c1c(-c1ccccc1)c(-c1ccccc1)n2Cc1ccco1`, the Potency is reported as “inactive”.
With `COCCn1c(C)cc(C(=O)COC(=O)c2cccc(O)c2)c1C` the Potency was active: 0.355 µM.
In the case of `O=C(Nc1ccccc1C(=O)N/N=C/c1ccc(F)cc1)c1ccccc1Br`, the Potency is reported as active: 10 µM.
In the case of `O=C(CSc1nnc(-c2cccs2)o1)N1CCCCC1`, the Potency is reported as inconclusive: 0.794 µM [activator, single point].
`O=S(=O)(c1ccc(Cl)c(NC(=S)N/N=C/c2ccc(O)cc2)c1)N1CCOCC1` was tested, and the Potency was active: 10 µM.
With `O=C(CN1C2=NCCCN2c2ccccc21)c1ccc(Cl)cc1Cl` the Potency was “inactive”.
With `CCOC(=O)c1ccc2nc(NC(C)=O)sc2c1` the Potency was inconclusive: 0.1 µM [activator, partial curve, poor fit].
In the case of `CCOC(=O)c1c(-c2ccc(F)cc2)csc1NC(=O)CN1C(=O)NC2(CCCCC2C)C1=O` (centres undefined), the Potency is reported as inconclusive: 22.4 µM [inhibitor, single point].
`O=C(CSc1cccc[n+]1[O-])c1cc2ccccc2o1` was tested, and the Potency was inconclusive: 20 µM [inhibitor, single point].
For `COc1cc(CN2CCC(CO)(CCOc3ccccc3)CC2)cc(OC)c1OC`, the Potency was “inactive”.
`O=C(CCCC(=O)N1CCN(c2ccc([N+](=O)[O-])cc2)CC1)c1ccccc1` was tested, and the Potency was inconclusive: 22.4 µM [activator, single point].
For `O=C(N/N=C/C1=C(N2CCOCC2)C(=C\c2ccccc2)/CC1)Nc1ccccc1`, the Potency was “inactive”.
In the case of `Cc1cccc(C(=O)Nc2ccc(C(=O)/C=C/c3cccs3)cc2)c1`, the Potency is reported as inconclusive: 35.5 µM [inhibitor, single point].
In the case of `CCOc1ccc(N2CC(C(=O)Nc3ccc(S(=O)(=O)N4CCCC4)cc3)CC2=O)cc1` (centres undefined), the Potency is reported as inconclusive: 4.47 µM [activator, single point].
`COCCn1c(C2CCCCC2)nc2sc3ccccc3c(=O)c2c1=O` was tested, and the Potency was “inactive”.
With `CN1CCC[C@@H]1Cc1c[nH]c2ccc(CCS(=O)(=O)c3ccccc3)cc12` the Potency was “inactive”.
In the case of `COc1cccc(OCC(=O)O/N=C(\N)c2ccc(OC)c(OC)c2)c1`, the Potency is reported as “inactive”.
For `N#Cc1sc2nc(C3CC3)cc(-c3ccccc3)c2c1N`, the Potency was inconclusive: 14.1 µM [activator, partial curve, poor fit].
With `O=C(CN1CCCCCC1)Nc1ccc(S(=O)(=O)N2CCCCC2)cc1` the Potency was “inactive”.
For `O=C1c2ccccc2C(=O)C1c1nccc2ccccc12`, the Potency was inconclusive: 2 µM [inhibitor, single point].
With `C=CCn1c(CCCNC(=O)CCC)nc2ccccc21` the Potency was inconclusive: 35.5 µM [activator, single point].
With `O=C(O)C1CCCCC1C(=O)Nc1ccccc1C(=O)N1CCN(c2ccc(F)cc2)CC1` (centres undefined) the Potency was “inactive”.
With `Cc1cc2n(n1)SC(Nc1cc(Cl)ccc1Cl)N2` (centres undefined) the Potency was active: 0.501 µM.
For `COc1ccccc1Oc1ccc(N/C=C/C(=O)C(C)(C)C)cc1`, the Potency was inconclusive: 15.8 µM [activator, single point].
For `O=C(N/N=C/c1cccnc1)c1ccc2c(c1)OCCO2`, the Potency was inconclusive: 7.94 µM [inhibitor, partial curve].
`Cc1cc(C(F)(F)F)nn1Cc1n[nH]c(=S)n1-c1ccc(F)cc1` was tested, and the Potency was inconclusive: 22.4 µM [inhibitor, single point].
